The test concerns the target T1, BCDIN3D tagged with a FLAG tag at its C-terminus (human) (UniProt Q7Z5W3).
T1 sequence: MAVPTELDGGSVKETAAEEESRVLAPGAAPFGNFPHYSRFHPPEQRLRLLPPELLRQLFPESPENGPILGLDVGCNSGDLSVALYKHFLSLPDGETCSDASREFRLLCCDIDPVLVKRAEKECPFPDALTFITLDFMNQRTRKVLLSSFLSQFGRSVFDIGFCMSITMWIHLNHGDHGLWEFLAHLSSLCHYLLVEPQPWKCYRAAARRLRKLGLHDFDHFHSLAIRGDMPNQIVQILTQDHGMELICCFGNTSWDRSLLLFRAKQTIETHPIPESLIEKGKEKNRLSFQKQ
Put plainly: co-IP; FLAG eluates and inputs of Hela-S3-Flp-In Control and BCDIN3Df cells analysed by western blot with a TRMT5 antibody.

These are yes or no findings as the source states them, for the method shown. In cells and extracts the contact can be indirect. Some binding calls cover weakened binding; strength is not graded here. Sequences can lack the tags named with a protein.

B1: TRMT5 (enzyme, UniProt Q32P41 1-509)
chain: MVLWILWRPFGFSGRFLKLESHSITESKSLIPVAWTSLTQMLLEAPGIFLLGQRKRFSTMPETETHERETELFSPPSDVRGMTKLDRTAFKKTVNIPVLKVRKEIVSKLMRSLKRAALQRPGIRRVIEDPEDKESRLIMLDPYKIFTHDSFEKAELSVLEQLNVSPQISKYNLELTYEHFKSEEILRAVLPEGQDVTSGFSRIGHIAHLNLRDHQLPFKHLIGQVMIDKNPGITSAVNKINNIDNMYRNFQMEVLSGEQNMMTKVRENNYTYEFDFSKVYWNPRLSTEHSRITELLKPGDVLFDVFAGVGPFAIPVAKKNCTVFANDLNPESHKWLLYNCKLNKVDQKVKVFNLDGKDFLQGPVKEELMQLLGLSKERKPSVHVVMNLPAKAIEFLSAFKWLLDGQPCSSEFLPIVHCYSFSKDANPAEDVRQRAGAVLGISLEACSSVHLVRNVAPNKEMLCITFQIPASVLYKNQTRNPENHEDPPLKRQRTAEAFSDEKTQIVSNT
B1: the binding entry is on record as “binds”.

Source of the values: paper PMC6675128.
